According to the supplement of paper PMC10973195:
± gives the standard deviation of the averaged measurements. The list shows a part of the results. These are raw signals, not scaled to a control.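 A neuron, microglia and astrocyte co-culture models inflammatory neurodegeneration: bacterial LPS drives microglia-dependent neuron loss. Each compound was tested against DMSO vehicle wells on the same plates; BAY61-3606, a SYK inhibitor, was the reference neuroprotective control.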

How the values were obtained:
Settings in all cases: 1 µM, treatment time 3 days
[1] = system: rat primary cerebellar neuron-glia coculture; experiment: microglia count (IB4+) per image field (cells per field); higher = more microglia
[2] = system: rat primary cerebellar neuron-glia coculture; experiment: necrotic cell count (DRAQ7+) per image field (cells per field); higher = more necrosis
[3] = system: rat primary cerebellar neuron-glia coculture; experiment: live neuron count (NeuO+) per image field (cells per field); higher = more surviving neurons
[4] = system: rat primary cerebellar neuron-glia coculture; experiment: median microglial FormFactor (circularity) per image (dimensionless (0-1)); higher = rounder, more ameboid microglia

| SMILES | microglia count ([1]; LPS 0 ng/mL) | microglia count ([1]; LPS 100 ng/mL) | necrotic cell count ([2]; LPS 0 ng/mL) | necrotic cell count ([2]; LPS 100 ng/mL) | live neuron count ([3]; LPS 0 ng/mL) | live neuron count ([3]; LPS 100 ng/mL) | median microglial FormFactor ([4]; LPS 0 ng/mL) | median microglial FormFactor ([4]; LPS 100 ng/mL) |
| --- | --- | --- | --- | --- | --- | --- | --- | --- |
| COc1cc2c(NC3CCN(C(C)C)CC3)nc(C3CCCCC3)nc2cc1OCCCN1CCCC1 | 161 ± 34 | 406 ± 78 | 84.6 ± 31 | 931 ± 270 | 2460 ± 440 | 323 ± 290 | 0.53 ± 0.095 | 0.689 ± 0.043 |
| CC(=O)N1C(=O)C(=O)c2ccccc21 | 210 ± 170 | 442 ± 100 | 92.1 ± 33 | 948 ± 250 | 2710 ± 470 | 392 ± 310 | 0.53 ± 0.093 | 0.664 ± 0.037 |
| Cc1c(C(=O)NN2CCCCC2)nn(-c2ccc(Cl)cc2Cl)c1-c1ccc(I)cc1 | 157 ± 26 | 461 ± 120 | 85.8 ± 36 | 1000 ± 460 | 2660 ± 550 | 388 ± 390 | 0.55 ± 0.064 | 0.635 ± 0.06 |
| CC(=O)Nc1ccc(O)cc1 | 167 ± 33 | 472 ± 72 | 84 ± 28 | 773 ± 230 | 2700 ± 510 | 462 ± 600 | 0.549 ± 0.091 | 0.614 ± 0.11 |
| O=C(Oc1nsnc1N1CCCCC1)N1CCOCC1 | 171 ± 65 | 439 ± 76 | 88.2 ± 41 | 908 ± 320 | 2710 ± 580 | 243 ± 360 | 0.559 ± 0.082 | 0.686 ± 0.093 |
| O=C(NCCCCCCNC(=O)ON=C1CCCCC1)ON=C1CCCCC1 | 170 ± 47 | 450 ± 81 | 80.2 ± 25 | 883 ± 300 | 2670 ± 530 | 591 ± 580 | 0.56 ± 0.091 | 0.635 ± 0.065 |
| COc1ccc(CC(=O)NCc2ccccc2-c2ccccc2C(=O)NCc2ccc(F)cc2F)cc1 | 165 ± 41 | 492 ± 110 | 79.9 ± 37 | 827 ± 440 | 2650 ± 440 | 559 ± 620 | 0.545 ± 0.072 | 0.622 ± 0.088 |
| NNC(=O)c1cc(-c2ccc(Cl)cc2Cl)n[nH]1 | 164 ± 44 | 453 ± 120 | 82.2 ± 37 | 994 ± 270 | 2630 ± 500 | 409 ± 440 | 0.547 ± 0.085 | 0.652 ± 0.062 |
| Cc1c(F)cc(C(=O)NC2CC2)cc1-c1ccc(C(=O)NCC(C)(C)C)cn1 | 170 ± 45 | 513 ± 60 | 84.6 ± 25 | 259 ± 160 | 2540 ± 450 | 1840 ± 650 | 0.555 ± 0.092 | 0.574 ± 0.084 |
| c1ccc(C2=NCCN2)cc1 | 164 ± 58 | 465 ± 100 | 78.2 ± 23 | 825 ± 230 | 2550 ± 450 | 458 ± 430 | 0.527 ± 0.077 | 0.652 ± 0.064 |
| O=c1c2ccccc2nc2n1CCc1c-2[nH]c2ccccc12 | 170 ± 74 | 414 ± 97 | 89.8 ± 44 | 1120 ± 370 | 2670 ± 570 | 172 ± 180 | 0.563 ± 0.09 | 0.703 ± 0.045 |
| O=C(N[C@@H](c1ccccc1)[C@@H]1CCCCN1)c1cccc(C(F)(F)F)c1Cl | 153 ± 51 | 428 ± 60 | 95.8 ± 38 | 967 ± 330 | 2580 ± 490 | 471 ± 420 | 0.542 ± 0.086 | 0.674 ± 0.088 |

Limited to microglia count ([1]; LPS 100 ng/mL), for two of the compounds above:
SMILES | microglia count ([1]; LPS 100 ng/mL)
CC(=O)N1C(=O)C(=O)c2ccccc21 | 442 ± 100
Cc1c(C(=O)NN2CCCCC2)nn(-c2ccc(Cl)cc2Cl)c1-c1ccc(I)cc1 | 461 ± 120
